Reference: PubChem BioAssay AID504808 (Drosophila RNAi Screening Center, 2011)
Assay: 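Genes whose loss lifts activity of an E2F-responsive reporter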 (primary screen). System: Drosophila S2 cells. Reagent: long dsRNA against Drosophila genes. Detection: 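Firefly luciferase driven by E2F sites, normalised to Renilla luciferase on the same minimal promoter, measured by plate reader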. Direction: E2F firefly: higher = more E2F reporter activity; Renilla normaliser: higher = more normaliser reporter signal. Call rule: 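a knock-down counted as active when the firefly/Renilla E2F signal rose above 50%, a threshold chosen arbitrarily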.
The deposit covers about 21,000 reagents; shown is an unselected part of those that have a named target and a result. Over the whole deposit, 18 (0.084%) got an active call. 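Raw counts without plate normalisation, one of two replicates; the ratio scores behind the calls were not deposited.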 Reagents against one gene are numbered here. A plus sign joins genes that one reagent is predicted to hit. Not given: the amount of reagent, the time to read-out.

KaiR1D: E2F firefly, rep 1 = 1.41e5; Renilla normaliser, rep 1 = 7394; activity call = inactive
muc: E2F firefly, rep 1 = 1.55e5; Renilla normaliser, rep 1 = 4979; activity call = inactive
l(3)72Dr: E2F firefly, rep 1 = 1.56e5; Renilla normaliser, rep 1 = 7956; activity call = inactive
CG14615: E2F firefly, rep 1 = 1.40e5; Renilla normaliser, rep 1 = 6238; activity call = inactive
sima: E2F firefly, rep 1 = 1.06e5; Renilla normaliser, rep 1 = 3914; activity call = inactive
CG33013 (retired record): E2F firefly, rep 1 = 89862; Renilla normaliser, rep 1 = 4066; activity call = inactive
Jon65Ai: E2F firefly, rep 1 = 94362; Renilla normaliser, rep 1 = 3577; activity call = inactive
run: E2F firefly, rep 1 = 1.56e5; Renilla normaliser, rep 1 = 5893; activity call = inactive
Rubicon: E2F firefly, rep 1 = 95497; Renilla normaliser, rep 1 = 5120; activity call = inactive
Tdc1: E2F firefly, rep 1 = 1.37e5; Renilla normaliser, rep 1 = 5049; activity call = inactive
CG31952: E2F firefly, rep 1 = 1.40e5; Renilla normaliser, rep 1 = 5035; activity call = inactive
CG5866: E2F firefly, rep 1 = 97250; Renilla normaliser, rep 1 = 6111; activity call = inactive
CG4294: E2F firefly, rep 1 = 73939; Renilla normaliser, rep 1 = 3943; activity call = inactive
CG17574: E2F firefly, rep 1 = 1.02e5; Renilla normaliser, rep 1 = 4182; activity call = inactive
Gr64d + Gr64e: E2F firefly, rep 1 = 97280; Renilla normaliser, rep 1 = 3783; activity call = inactive
twe: E2F firefly, rep 1 = 77031; Renilla normaliser, rep 1 = 3710; activity call = inactive
chico: E2F firefly, rep 1 = 69358; Renilla normaliser, rep 1 = 3381; activity call = inactive
CG5181: E2F firefly, rep 1 = 1.02e5; Renilla normaliser, rep 1 = 3869; activity call = inactive
Cyp28d2: E2F firefly, rep 1 = 1.37e5; Renilla normaliser, rep 1 = 4595; activity call = inactive
spz4: E2F firefly, rep 1 = 1.27e5; Renilla normaliser, rep 1 = 4988; activity call = inactive
hbn #1: E2F firefly, rep 1 = 94056; Renilla normaliser, rep 1 = 3759; activity call = inactive
hbn #2: E2F firefly, rep 1 = 1.12e5; Renilla normaliser, rep 1 = 4458; activity call = inactive
hbn #3: E2F firefly, rep 1 = 99374; Renilla normaliser, rep 1 = 3827; activity call = inactive
mRpS7: E2F firefly, rep 1 = 86011; Renilla normaliser, rep 1 = 3129; activity call = inactive
CG13667: E2F firefly, rep 1 = 76971; Renilla normaliser, rep 1 = 3847; activity call = inactive
wor: E2F firefly, rep 1 = 1.14e5; Renilla normaliser, rep 1 = 4725; activity call = inactive
Bcs1: E2F firefly, rep 1 = 1.65e5; Renilla normaliser, rep 1 = 5587; activity call = inactive
Cyp6a21: E2F firefly, rep 1 = 1.07e5; Renilla normaliser, rep 1 = 4455; activity call = inactive
